# Laboratory results from the supplement of paper PMC12067093, “Discovery and optimisation of a covalent ligand for TRIM25 and its application to targeted protein ubiquitination” (Chemical Science, 2025).
# Chains of the proteins cited; added tags and fusions are not shown. Lines headed by an entry give the natural chain unless they say otherwise; changes in a name come on top.
# UniProt Q9UH03, whole entry, looked up: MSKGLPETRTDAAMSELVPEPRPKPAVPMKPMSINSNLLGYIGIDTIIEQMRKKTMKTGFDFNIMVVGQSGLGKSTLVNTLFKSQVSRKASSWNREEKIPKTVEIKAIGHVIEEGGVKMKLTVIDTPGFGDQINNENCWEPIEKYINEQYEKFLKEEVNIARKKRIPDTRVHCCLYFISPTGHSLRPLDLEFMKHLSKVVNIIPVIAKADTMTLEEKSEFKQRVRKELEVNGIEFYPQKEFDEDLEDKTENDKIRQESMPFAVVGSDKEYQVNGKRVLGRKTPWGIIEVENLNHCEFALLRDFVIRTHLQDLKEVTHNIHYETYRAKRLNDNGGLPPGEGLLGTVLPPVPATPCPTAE
# UniProt Q15437: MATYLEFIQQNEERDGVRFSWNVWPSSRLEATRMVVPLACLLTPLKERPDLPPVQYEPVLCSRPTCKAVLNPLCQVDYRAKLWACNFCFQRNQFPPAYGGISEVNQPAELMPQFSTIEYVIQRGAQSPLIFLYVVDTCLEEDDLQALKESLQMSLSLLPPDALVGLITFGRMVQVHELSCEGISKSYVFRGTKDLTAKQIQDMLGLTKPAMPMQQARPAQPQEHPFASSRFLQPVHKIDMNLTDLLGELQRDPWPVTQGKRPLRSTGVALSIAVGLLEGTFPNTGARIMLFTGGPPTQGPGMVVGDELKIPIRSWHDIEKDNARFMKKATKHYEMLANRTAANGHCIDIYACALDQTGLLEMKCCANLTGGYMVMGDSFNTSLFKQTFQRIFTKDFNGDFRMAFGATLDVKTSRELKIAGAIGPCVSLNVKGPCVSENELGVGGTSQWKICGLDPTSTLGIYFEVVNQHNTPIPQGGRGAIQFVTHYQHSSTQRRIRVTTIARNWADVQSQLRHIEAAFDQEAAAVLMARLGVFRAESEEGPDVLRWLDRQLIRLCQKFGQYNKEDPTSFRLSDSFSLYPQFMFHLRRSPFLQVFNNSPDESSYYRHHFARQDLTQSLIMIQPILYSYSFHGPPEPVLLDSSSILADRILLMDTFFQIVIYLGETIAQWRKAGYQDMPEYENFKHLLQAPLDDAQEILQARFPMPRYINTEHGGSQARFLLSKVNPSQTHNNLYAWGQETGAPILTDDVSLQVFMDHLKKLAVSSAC
# UniProt O94979: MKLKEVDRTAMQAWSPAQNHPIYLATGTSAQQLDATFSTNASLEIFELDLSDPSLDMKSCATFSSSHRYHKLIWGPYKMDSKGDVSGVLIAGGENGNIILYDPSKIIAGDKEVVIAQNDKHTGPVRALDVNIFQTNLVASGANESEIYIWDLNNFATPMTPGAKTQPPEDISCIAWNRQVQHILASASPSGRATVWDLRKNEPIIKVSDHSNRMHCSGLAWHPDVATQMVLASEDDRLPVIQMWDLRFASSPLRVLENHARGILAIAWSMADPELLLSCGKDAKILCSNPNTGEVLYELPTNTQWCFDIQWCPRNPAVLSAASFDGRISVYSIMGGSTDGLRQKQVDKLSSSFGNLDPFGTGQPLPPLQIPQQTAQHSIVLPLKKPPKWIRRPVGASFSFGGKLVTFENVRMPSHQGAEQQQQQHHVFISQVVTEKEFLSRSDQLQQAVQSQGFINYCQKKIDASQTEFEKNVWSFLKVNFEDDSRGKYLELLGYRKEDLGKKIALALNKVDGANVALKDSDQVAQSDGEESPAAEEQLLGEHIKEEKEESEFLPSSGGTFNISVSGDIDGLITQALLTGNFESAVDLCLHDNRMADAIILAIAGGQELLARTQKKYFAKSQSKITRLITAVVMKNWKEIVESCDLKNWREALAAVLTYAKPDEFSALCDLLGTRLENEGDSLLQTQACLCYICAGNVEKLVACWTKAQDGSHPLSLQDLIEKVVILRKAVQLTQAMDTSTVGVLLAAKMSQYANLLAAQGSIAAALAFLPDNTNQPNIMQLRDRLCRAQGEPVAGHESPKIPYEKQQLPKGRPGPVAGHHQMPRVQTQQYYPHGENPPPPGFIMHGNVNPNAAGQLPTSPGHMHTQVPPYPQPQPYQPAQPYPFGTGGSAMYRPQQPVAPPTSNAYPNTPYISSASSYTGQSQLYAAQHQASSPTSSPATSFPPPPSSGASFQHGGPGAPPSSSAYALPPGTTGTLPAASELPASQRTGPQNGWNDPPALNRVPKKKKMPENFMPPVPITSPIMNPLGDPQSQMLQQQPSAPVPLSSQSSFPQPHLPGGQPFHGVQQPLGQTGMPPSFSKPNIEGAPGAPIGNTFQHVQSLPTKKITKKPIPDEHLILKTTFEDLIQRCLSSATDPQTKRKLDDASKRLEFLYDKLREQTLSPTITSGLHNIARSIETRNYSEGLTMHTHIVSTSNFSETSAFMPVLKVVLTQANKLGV
# UniProt Q6P3W7: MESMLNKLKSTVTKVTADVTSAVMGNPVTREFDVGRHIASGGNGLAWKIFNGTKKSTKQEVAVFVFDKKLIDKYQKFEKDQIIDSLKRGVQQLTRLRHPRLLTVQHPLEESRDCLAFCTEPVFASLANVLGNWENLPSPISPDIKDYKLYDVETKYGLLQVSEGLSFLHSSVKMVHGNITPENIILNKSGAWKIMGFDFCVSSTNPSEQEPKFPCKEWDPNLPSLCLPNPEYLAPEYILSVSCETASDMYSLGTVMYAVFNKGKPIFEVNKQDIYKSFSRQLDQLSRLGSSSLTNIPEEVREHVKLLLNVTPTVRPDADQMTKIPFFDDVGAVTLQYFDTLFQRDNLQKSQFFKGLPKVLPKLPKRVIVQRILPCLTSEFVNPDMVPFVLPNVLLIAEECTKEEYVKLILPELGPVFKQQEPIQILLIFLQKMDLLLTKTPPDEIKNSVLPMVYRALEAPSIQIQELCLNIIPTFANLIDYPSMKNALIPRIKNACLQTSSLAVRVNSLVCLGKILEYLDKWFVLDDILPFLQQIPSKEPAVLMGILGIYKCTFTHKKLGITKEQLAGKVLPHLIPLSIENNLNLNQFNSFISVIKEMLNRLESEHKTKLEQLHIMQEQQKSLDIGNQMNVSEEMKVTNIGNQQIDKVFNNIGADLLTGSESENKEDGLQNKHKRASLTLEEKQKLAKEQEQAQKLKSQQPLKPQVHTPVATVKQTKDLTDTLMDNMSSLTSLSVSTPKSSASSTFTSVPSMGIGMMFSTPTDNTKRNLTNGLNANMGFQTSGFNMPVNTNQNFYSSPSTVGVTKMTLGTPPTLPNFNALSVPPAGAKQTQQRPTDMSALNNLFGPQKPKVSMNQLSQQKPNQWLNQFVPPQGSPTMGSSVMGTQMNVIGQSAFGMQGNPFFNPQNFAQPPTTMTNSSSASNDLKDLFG
# UniProt Q9Y6Y8: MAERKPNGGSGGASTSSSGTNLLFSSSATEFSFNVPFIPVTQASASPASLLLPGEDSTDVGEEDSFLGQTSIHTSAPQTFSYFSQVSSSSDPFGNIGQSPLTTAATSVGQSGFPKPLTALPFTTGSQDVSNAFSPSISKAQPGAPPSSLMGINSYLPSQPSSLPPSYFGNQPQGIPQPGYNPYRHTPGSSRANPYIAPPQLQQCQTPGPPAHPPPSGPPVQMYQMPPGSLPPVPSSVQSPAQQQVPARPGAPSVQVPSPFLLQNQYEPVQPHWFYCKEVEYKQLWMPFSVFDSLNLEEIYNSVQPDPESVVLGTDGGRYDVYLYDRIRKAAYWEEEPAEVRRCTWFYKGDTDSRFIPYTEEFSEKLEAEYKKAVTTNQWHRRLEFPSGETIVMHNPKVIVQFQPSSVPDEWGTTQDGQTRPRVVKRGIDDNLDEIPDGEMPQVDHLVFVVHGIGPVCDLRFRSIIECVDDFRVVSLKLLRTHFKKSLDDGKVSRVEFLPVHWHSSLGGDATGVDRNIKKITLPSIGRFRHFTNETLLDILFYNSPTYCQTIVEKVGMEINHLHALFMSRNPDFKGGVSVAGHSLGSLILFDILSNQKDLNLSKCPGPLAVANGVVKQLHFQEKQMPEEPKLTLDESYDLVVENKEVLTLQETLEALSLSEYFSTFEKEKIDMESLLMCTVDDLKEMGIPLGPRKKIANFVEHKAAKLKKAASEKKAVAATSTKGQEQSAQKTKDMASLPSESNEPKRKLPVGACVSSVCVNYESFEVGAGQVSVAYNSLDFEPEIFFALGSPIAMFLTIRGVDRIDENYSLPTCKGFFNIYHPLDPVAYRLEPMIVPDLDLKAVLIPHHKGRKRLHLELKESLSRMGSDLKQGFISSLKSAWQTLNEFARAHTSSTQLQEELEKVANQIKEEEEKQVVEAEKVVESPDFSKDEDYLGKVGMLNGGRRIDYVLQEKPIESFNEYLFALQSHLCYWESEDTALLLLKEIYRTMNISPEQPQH
# UniProt P55735: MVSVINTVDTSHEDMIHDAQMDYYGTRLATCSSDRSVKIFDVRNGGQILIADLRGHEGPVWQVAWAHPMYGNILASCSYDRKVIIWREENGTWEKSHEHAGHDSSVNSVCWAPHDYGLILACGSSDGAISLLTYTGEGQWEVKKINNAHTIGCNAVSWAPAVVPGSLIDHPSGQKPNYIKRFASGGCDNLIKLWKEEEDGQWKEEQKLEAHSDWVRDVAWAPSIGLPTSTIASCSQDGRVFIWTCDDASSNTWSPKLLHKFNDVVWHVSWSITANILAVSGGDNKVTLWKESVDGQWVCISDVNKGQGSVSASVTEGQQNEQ
# UniProt P53992: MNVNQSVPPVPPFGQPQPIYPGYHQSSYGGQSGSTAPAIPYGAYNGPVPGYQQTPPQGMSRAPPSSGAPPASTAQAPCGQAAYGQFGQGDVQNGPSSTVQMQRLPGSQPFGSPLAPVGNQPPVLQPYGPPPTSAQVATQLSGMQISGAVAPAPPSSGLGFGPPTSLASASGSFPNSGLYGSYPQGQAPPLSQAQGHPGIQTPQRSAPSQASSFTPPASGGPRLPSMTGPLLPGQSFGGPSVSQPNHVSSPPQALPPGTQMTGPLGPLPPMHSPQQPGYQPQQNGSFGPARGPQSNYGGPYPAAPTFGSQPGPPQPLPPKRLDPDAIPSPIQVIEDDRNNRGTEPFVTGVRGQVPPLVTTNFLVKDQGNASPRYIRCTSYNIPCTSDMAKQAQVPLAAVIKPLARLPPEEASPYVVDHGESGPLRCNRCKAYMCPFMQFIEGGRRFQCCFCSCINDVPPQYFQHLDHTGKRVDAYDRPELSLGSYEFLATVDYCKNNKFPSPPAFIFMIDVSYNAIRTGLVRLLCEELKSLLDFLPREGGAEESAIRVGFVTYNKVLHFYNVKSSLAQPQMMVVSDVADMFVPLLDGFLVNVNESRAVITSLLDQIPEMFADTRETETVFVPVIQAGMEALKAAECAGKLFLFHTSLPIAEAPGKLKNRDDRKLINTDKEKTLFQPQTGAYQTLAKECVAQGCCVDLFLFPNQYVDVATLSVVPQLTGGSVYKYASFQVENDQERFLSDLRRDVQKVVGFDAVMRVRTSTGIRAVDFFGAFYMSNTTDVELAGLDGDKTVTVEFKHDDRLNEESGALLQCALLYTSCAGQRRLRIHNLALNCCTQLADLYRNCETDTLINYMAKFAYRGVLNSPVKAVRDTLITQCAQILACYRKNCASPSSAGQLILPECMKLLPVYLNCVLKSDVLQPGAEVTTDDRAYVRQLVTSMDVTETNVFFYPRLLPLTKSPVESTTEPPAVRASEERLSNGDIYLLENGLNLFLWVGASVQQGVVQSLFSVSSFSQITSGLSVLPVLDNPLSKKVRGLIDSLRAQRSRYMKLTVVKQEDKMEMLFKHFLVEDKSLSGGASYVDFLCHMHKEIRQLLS
# UniProt Q9H3S1: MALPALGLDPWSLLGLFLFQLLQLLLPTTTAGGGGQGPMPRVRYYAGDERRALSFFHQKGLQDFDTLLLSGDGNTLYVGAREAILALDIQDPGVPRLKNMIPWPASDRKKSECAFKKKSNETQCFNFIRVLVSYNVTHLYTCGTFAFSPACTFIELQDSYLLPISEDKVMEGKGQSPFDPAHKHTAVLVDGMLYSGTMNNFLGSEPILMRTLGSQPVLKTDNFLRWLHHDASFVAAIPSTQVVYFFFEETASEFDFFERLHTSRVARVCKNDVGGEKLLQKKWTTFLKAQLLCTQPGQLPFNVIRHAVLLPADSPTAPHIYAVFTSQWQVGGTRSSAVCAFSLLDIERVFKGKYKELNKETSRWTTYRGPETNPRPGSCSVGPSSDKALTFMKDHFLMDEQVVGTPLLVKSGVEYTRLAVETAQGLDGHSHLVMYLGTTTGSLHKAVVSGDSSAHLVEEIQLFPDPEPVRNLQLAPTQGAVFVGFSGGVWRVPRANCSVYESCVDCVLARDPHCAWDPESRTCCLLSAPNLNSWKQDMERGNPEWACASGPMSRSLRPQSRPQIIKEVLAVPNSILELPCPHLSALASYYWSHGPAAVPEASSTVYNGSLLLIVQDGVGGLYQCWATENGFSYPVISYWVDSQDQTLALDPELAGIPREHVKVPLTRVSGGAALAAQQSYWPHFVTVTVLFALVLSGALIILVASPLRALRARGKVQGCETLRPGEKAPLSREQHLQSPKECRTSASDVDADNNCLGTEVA
# The other results are listed elsewhere or left out.
# Compound: Cc1cc(ccc1-c1ccccc1)C(=O)N1CCCN(CC1)C(=O)CCl [compound 10]
# Assay: probe-labelled cysteine peptide fold change vs DMSO (competition) (log2 fold change); higher = less target engagement (more negative = stronger competition)
# Details: 10 µM; THP-1; incubation time: 4 h
# 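Also: competitive profiling in live THP-1 cells: cysteine peptides tagged with an iodoacetamide desthiobiotin (IA-DTB) probe, intensity after compound treatment relative to DMSO-treated cells.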
row,Target,probe-labelled cysteine peptide fold change
1,SCCPDH_Q8NBX0_238_WPISYCR (UniProt Q8NBX0),-0.242
2,SAR1A_Q9NR31_178_ELNARPMEVFMCSVLKR (UniProt Q9NR31),-0.257
3,SEPT3_Q9UH03_295_KTPWGIIEVENLNHCEFALLR (UniProt Q9UH03),-0.17
4,SEPT5_Q99719_193_ADCLVPSEIR (UniProt Q99719),-0.101
5,SCFD2_Q8WU76_54_LLEAVGGPDCHLR (UniProt Q8WU76),0.0371
6,SEPT2_Q15019_111_LTVVDTPGYGDAINCR (UniProt Q15019),0.131
7,SATB1_Q01826_91_GTMLPVFCVVEHYENAIEYDCKEEHAEFVLVRK (UniProt Q01826),-0.0561
8,SAP130_Q9H0E3_951_VHLCAAQLLQLTNLEHDVYER (UniProt Q9H0E3),0.0945
9,SEPT2_Q15019_148_VHCCFYFISPFGHGLK (UniProt Q15019),-0.225
10,SATB1_Q01826_173_IQLHSCPK (UniProt Q01826),-0.0552
11,SEH1L_Q96EE3_133_HMGLMLATCSADGIVR (UniProt Q96EE3),0.255
12,SEPHS1_P49903_71_LGIGMDTCVIPLR (UniProt P49903),0.0858
13,SEC23B_Q15437_346_TAANGHCIDIYACALDQTGLLEMK (UniProt Q15437),-0.139
14,SCLY_Q96I15_316_AAELVTQNCEAYEAHMR (UniProt Q96I15),0.128
15,SEC31A_O94979_173_TQPPEDISCIAWNR (UniProt O94979),0.0307
16,SAMSN1_Q9NSI8_165_LDDDGPYSGPFCGR (UniProt Q9NSI8),0.301
17,SEC63_Q9UGP8_295_KNEPPLTCPYSLK (UniProt Q9UGP8),-0.404
18,SDK1_Q7Z5N4_126_LVLTCLAEGSWPLEFK (UniProt Q7Z5N4),0.0533
19,SCLY_Q96I15_388_VLMASVGAACHSDHGDQPSPVLLSYGVPFDVAR (UniProt Q96I15),-0.181
20,SCYL2_Q6P3W7_511_VNSLVCLGK (UniProt Q6P3W7),-0.2

row,Target,probe-labelled cysteine peptide fold change
1,SEH1L_Q96EE3_161_IYEAPDVMNLSQWSLQHEISCK (UniProt Q96EE3),0.0732
2,SAP30BP_Q9UHR5_127_CSNHLQDK (UniProt Q9UHR5),-0.0884
3,SEH1L_Q96EE3_49_SESGDWHCTASWK (UniProt Q96EE3),0.204
4,SDHA_P31040_238_GVIALCIEDGSIHR (UniProt P31040),0.187
5,SEC24D_O94855_573_AADCPGK (UniProt O94855),0.0793
6,SCRN3_Q0VDG4_143_YGQGGNCTEGR (UniProt Q0VDG4),-0.0586
7,SEC16A_O15027_1797_TEAYEYAQSLGAETCPLPSFQVFK (UniProt O15027),-0.124
8,SEC23IP_Q9Y6Y8_678_IDMESLLMCTVDDLK (UniProt Q9Y6Y8),0.132
9,SCLY_Q96I15_22_DAPAPAASQPSGCGK (UniProt Q96I15),-0.196
10,SEC13_P55735_77_GHEGPVWQVAWAHPMYGNILASCSYDR (UniProt P55735),-0.106
11,SEC13_P55735_299_ESVDGQWVCISDVNK (UniProt P55735),0.282
12,SAPCD2_Q86UD0_46_GCVHLR (UniProt Q86UD0),0.167
13,SCAF11_Q99590_446_EHQPDVDSSNICTVQTHVENQSANCLK (UniProt Q99590),-0.284
14,SEC24C_P53992_809_HDDRLNEESGALLQCALLYTSCAGQR (UniProt P53992),0.118
15,SEMA4A_Q9H3S1_339_SSAVCAFSLLDIER (UniProt Q9H3S1),-0.137
16,SCYL1_Q96KG9_512_ILPVLCGLTVDPEK (UniProt Q96KG9),0.113
17,SEC24C_P53992_832_IHNLALNCCTQLADLYR (UniProt P53992),0.245
18,SEC23IP_Q9Y6Y8_467_SIIECVDDFR (UniProt Q9Y6Y8),0.143
19,SCFD2_Q8WU76_218_CLVSGLSSLCEHLGVR (UniProt Q8WU76),0.209

# Same assay, conditions: 50 µM; THP-1; incubation time: 4 h
row,Target,probe-labelled cysteine peptide fold change
1,SCCPDH_Q8NBX0_238_WPISYCR (UniProt Q8NBX0),-1.65
2,SAR1A_Q9NR31_178_ELNARPMEVFMCSVLKR (UniProt Q9NR31),-0.823
3,SEPT3_Q9UH03_295_KTPWGIIEVENLNHCEFALLR (UniProt Q9UH03),-0.0664
4,SEPT5_Q99719_193_ADCLVPSEIR (UniProt Q99719),0.0279
5,SCFD2_Q8WU76_54_LLEAVGGPDCHLR (UniProt Q8WU76),0.181
6,SEPT2_Q15019_111_LTVVDTPGYGDAINCR (UniProt Q15019),0.0356
7,SATB1_Q01826_91_GTMLPVFCVVEHYENAIEYDCKEEHAEFVLVRK (UniProt Q01826),-0.423
8,SAP130_Q9H0E3_951_VHLCAAQLLQLTNLEHDVYER (UniProt Q9H0E3),0.344
9,SEPT2_Q15019_148_VHCCFYFISPFGHGLK (UniProt Q15019),0.49
10,SATB1_Q01826_173_IQLHSCPK (UniProt Q01826),-0.188
11,SEH1L_Q96EE3_133_HMGLMLATCSADGIVR (UniProt Q96EE3),0.153
12,SEPHS1_P49903_71_LGIGMDTCVIPLR (UniProt P49903),0.0715
13,SEC23B_Q15437_346_TAANGHCIDIYACALDQTGLLEMK (UniProt Q15437),-0.168
14,SCLY_Q96I15_316_AAELVTQNCEAYEAHMR (UniProt Q96I15),0.00299
15,SEC31A_O94979_173_TQPPEDISCIAWNR (UniProt O94979),0.197
16,SAMSN1_Q9NSI8_165_LDDDGPYSGPFCGR (UniProt Q9NSI8),0.292
17,SEC63_Q9UGP8_295_KNEPPLTCPYSLK (UniProt Q9UGP8),-1.57
18,SDK1_Q7Z5N4_126_LVLTCLAEGSWPLEFK (UniProt Q7Z5N4),0.151
19,SCLY_Q96I15_388_VLMASVGAACHSDHGDQPSPVLLSYGVPFDVAR (UniProt Q96I15),-0.401
20,SCYL2_Q6P3W7_511_VNSLVCLGK (UniProt Q6P3W7),0.122

row,Target,probe-labelled cysteine peptide fold change
1,SEH1L_Q96EE3_161_IYEAPDVMNLSQWSLQHEISCK (UniProt Q96EE3),-0.0756
2,SAP30BP_Q9UHR5_127_CSNHLQDK (UniProt Q9UHR5),-0.31
3,SEH1L_Q96EE3_49_SESGDWHCTASWK (UniProt Q96EE3),0.0563
4,SDHA_P31040_238_GVIALCIEDGSIHR (UniProt P31040),0.0703
5,SEC24D_O94855_573_AADCPGK (UniProt O94855),0.0012
6,SCRN3_Q0VDG4_143_YGQGGNCTEGR (UniProt Q0VDG4),0.126
7,SEC16A_O15027_1797_TEAYEYAQSLGAETCPLPSFQVFK (UniProt O15027),-0.103
8,SEC23IP_Q9Y6Y8_678_IDMESLLMCTVDDLK (UniProt Q9Y6Y8),0.114
9,SCLY_Q96I15_22_DAPAPAASQPSGCGK (UniProt Q96I15),-0.596
10,SEC13_P55735_77_GHEGPVWQVAWAHPMYGNILASCSYDR (UniProt P55735),-0.12
11,SEC13_P55735_299_ESVDGQWVCISDVNK (UniProt P55735),0.245
12,SAPCD2_Q86UD0_46_GCVHLR (UniProt Q86UD0),-0.125
13,SCAF11_Q99590_446_EHQPDVDSSNICTVQTHVENQSANCLK (UniProt Q99590),-0.21
14,SEC24C_P53992_809_HDDRLNEESGALLQCALLYTSCAGQR (UniProt P53992),0.186
15,SEMA4A_Q9H3S1_339_SSAVCAFSLLDIER (UniProt Q9H3S1),-0.579
16,SCYL1_Q96KG9_512_ILPVLCGLTVDPEK (UniProt Q96KG9),0.0812
17,SEC24C_P53992_832_IHNLALNCCTQLADLYR (UniProt P53992),0.381
18,SEC23IP_Q9Y6Y8_467_SIIECVDDFR (UniProt Q9Y6Y8),0.282
19,SCFD2_Q8WU76_218_CLVSGLSSLCEHLGVR (UniProt Q8WU76),0.26
